# Screening data, single-dose tests

Protein sequences, listed by entry. Tags and fused reporters are not part of them.
UniProt P9WFT3, whole entry: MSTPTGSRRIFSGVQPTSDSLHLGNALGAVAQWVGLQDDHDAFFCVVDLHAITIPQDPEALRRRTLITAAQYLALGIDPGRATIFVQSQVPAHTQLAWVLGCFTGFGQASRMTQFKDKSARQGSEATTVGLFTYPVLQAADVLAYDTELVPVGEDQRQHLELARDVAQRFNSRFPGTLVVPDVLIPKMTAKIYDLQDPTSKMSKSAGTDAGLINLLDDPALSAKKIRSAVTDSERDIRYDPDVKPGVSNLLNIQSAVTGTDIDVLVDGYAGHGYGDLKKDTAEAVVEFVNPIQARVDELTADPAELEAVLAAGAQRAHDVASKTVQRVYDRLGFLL

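Tryptophan-tRNA ligase, Mycobacterium tuberculosis (UniProt P9WFT3). Enzyme assay of tryptophanyl-tRNA synthetase; the read-out is not stated. Tested at 10 µM. Direction is not recorded; retested compounds ran higher, which suggests that high means inhibition. Size under these conditions: about 65,000 compounds, about 64 of them at 50% or above in at least one test.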

The filed quantity is “Percent Effect” (%).
How 0% and 100% were set is not recorded. Most values in the screen are low, and negative values occur.
Compounds were drawn at random from those tested, without regard to their results.

SMILES | Percent Effect
Cc1ncc(CN2CCC(CNS(=O)(=O)C3CC3)C2)cn1 (stereo not given) | 11.77
Cc1ccc(CNC(=O)CN2CCN(CCO)CC2)s1 | 4.359
O=C(CCc1ccccn1)N1CCN(C(=O)CC2CCCCC2)CC1 | -2.424
Cc1cccc(OC2CCN(c3ccc(C#N)cn3)CC2)n1 | -5.56
Cc1ncsc1CN1CC[C@H]2C[C@H](c3ccncn3)O[C@@H]2C1 | 5.843
CN(C)CCO[C@H]1C[C@@H](O)C12CCN(c1ncccc1Cl)CC2 | 2.034
Cc1ncsc1CN1C[C@@H]2COC[C@]2(CNC(=O)c2ccco2)C1 | -4.17
CCc1ccc(CN2CCN(c3ccc(C#N)cc3)C(=O)C2)nc1 | 1.235
O=C(Cn1ccc2c(Cl)cccc21)N[C@@H](C(=O)O)c1ccccc1 | 2.613
COc1ccc(Br)c(C(=O)NC(CC(=O)O)c2cccs2)c1 (stereo not given) | -3.962
COC(=O)c1cccc(OCCn2nc(-c3cccs3)oc2=O)c1 | -0.8746
CN1CC(=O)N(c2cccc(F)c2)CC12CCN(Cc1ccsc1)C2 (stereo not given) | -0.239
COc1ccc(CN2C[C@@H]3CC[C@H](C2)N(S(C)(=O)=O)C3)cc1 | 4.205
CCNC(=O)[C@@H]1C[C@H](N)CN1Cc1ccc(-c2cc[nH]n2)o1 | 11.27
NC(=O)N1CCCC(C(=O)NCc2ccccc2OC(F)(F)F)C1 (stereo not given) | 0.1874
Cc1cc(CC(=O)NCC(O)c2ccc(OC(F)F)cc2)n[nH]1 (stereo not given) | -1.06
O=C1NCC[C@]12CN(Cc1nccs1)C[C@H]2c1ccccc1 | -2.705
Cc1cnc(N)nc1N1CCN(CCCO)CC1 | 0
Cc1cc(CN2CCC=C(CN(C)C(=O)c3ccco3)C2)no1 | 0.6173
Cc1cc(CNc2cc(Cl)ccc2OCCS(C)(=O)=O)no1 | -2.598
Cc1nc(C)c(C(=O)NCCNc2ncccc2C#N)s1 | 2.128
Cn1cc(N2CC3(CCN(Cc4cccs4)CC3)OCC2=O)cn1 | 0.7401
C1CCc2nnc(CNc3nc(C4CC4)nc4c3CCNCC4)n2CC1 | -6.735
O=C(C[S+]([O-])Cc1ccc(F)cc1Cl)NC1CCCC1 (stereo not given) | -2.593
O=C(NCC1CC1)c1nc2c(o1)CN(CC1CC1)C2 | -2.035
c1ncn(CC2CN(CC3CCCC3)CCO2)n1 (stereo not given) | -2.047
Cc1cc(C2CCCN(CC(=O)Nc3nc4c(s3)CCC4)C2)n[nH]1 (stereo not given) | 1.024
O=C1CC(c2cccs2)Cc2[nH]c(=O)ccc21 (stereo not given) | -1.273
CC(C)NC(=O)Nc1ccc2c(c1)ncn2CC(=O)NCCN(C)C | -3.56
Cc1cc(C)n(C2=NC(NCCC(C)C)c3c(sc4c3CCCC4)N2)n1 (stereo not given) | 0.1356
O=C(Cc1ccccc1Cl)Nc1cc(N2CCCC2)ncn1 | 0.2681
O=C(c1cn(-c2ccc(F)cc2)nn1)N1CCCC(n2cccn2)C1 (stereo not given) | -3.464
O=C(O)CN1CCC(F)(F)C2(CCN(c3ccccc3)C2)C1 (stereo not given) | -5.571
CC(C)(C)OC(=O)NC1(c2noc(-c3ccco3)n2)CCC1 | -3.269
O=C(O)C1CCCN1c1nc(-c2ccc(Cl)cc2)cc(C(F)(F)F)n1 (stereo not given) | -4.271
CC(NS(C)(=O)=O)C(=O)N(C)Cc1csc(-c2ccccc2)n1 (stereo not given) | 5.878
CC(=O)N1CCCN(C(=O)CCOc2ccc(C(C)C)cc2)CC1 | 28.56
COc1cccc(O[C@H]2CCN(c3nc(C)cc(C)n3)CC[C@@H]2O)c1 | 6.854
Cc1cc(=O)[nH]c(=O)n1Cc1ccccc1 | -1.235
NC(=O)CC1CCN(c2cncc(OCc3ccccc3)n2)CC1 | 2.422
Cc1nc(C)n(CC2CCCN2CCCOc2ccc(C#N)cc2)n1 (stereo not given) | -4.814
CC(C)OCCCNC(=O)Nc1cccc2ncccc12 | -2.571
CCn1c(C)nnc1CN(C)C1CCN(CCn2cccn2)C1 (stereo not given) | -0.8601
c1ccc(CCCN2CC(n3cccn3)C2)cc1 | 1.846
COc1cccc(CN(C)C(C)c2nccs2)c1OCCn1ccnc1 (stereo not given) | -3.179
Cc1nc([C@H]2C[C@H]3CN(C(=O)c4ccoc4C)CC[C@@H]3O2)no1 | -0.7229
CCc1nnc(N[C@H](C)c2cccc(OC)c2)o1 | 0.5228
CC(C)c1ncc2c(n1)CN(Cc1nc(-c3ccsc3)no1)CC2 | -9.369
O=C(NCc1nncn1-c1ccccc1)C1CCCC1 | -1.695
O=C1[C@H]2CN(c3ncc(F)cn3)C[C@H]2CN1CC1CC1 | 12.99
CCc1cc(N[C@H]2CC[C@@H](N)CC2)n2nc(C)c(C)c2n1 | 3.819
COc1ccc2c(c1)OCC(Cc1cc(C(=O)N3CCCC3)ccn1)C2 (stereo not given) | -1.071
COc1ncccc1CN1CCN(c2noc(C(C)C)n2)CC1 | 0.819
COC(=O)c1ccc2c(c1)CCCN2S(=O)(=O)c1cn(C)c(C)n1 | -0.4468
O=C1N(Cc2ccccn2)C[C@H]2CN(C3CCOCC3)CCN12 | -3.585
Cc1csc(CNC(=O)NC(C)c2ccc3c(c2)OCCO3)n1 (stereo not given) | -4.928
N#Cc1cccc(CN2CCC3(CC(C(=O)NCC4CC4)=NO3)C2)c1 (stereo not given) | 3.127
O=C(NCCNS(=O)(=O)c1ccc2c(c1)CCCC2)c1ccoc1 | 6.75
N#Cc1ncn(CCC(=O)Nc2cccc(Cl)c2)n1 | 0.6478
CC(NCc1ccc(OCc2nccn2C)cc1)c1cccnc1 (stereo not given) | -1.255
CN1CCN(C(=O)C2CCN(c3cccnn3)CC2)CC1 | -3.072
CCN(Cc1csc(CS(C)(=O)=O)n1)c1cccc(F)c1 | -1.326
CN(Cc1ccc(F)cc1F)CC(C)(CO)CO | -1.149
Cc1nn(CCC#N)c(C)c1CCC(=O)N(C)Cc1ccc(F)cc1F | -3.804
N#Cc1ccc(OCCN2CCn3c(nnc3C3CC3)C2)cc1 | 11.86
CCO[C@@H]1CC[C@H]2[C@H]1OCCN2Cc1ccc(F)cc1 | -1.684
COc1cccc(S(=O)(=O)CCNC(C)Cn2cccn2)c1 (stereo not given) | 2.222
CN1CCN(C)C(CNc2c(C#N)cnc3ccc(Cl)cc23)C1 (stereo not given) | -3.374
CC(C)c1noc(CN2CCN(C(=O)OC(C)(C)C)C(C)C2)n1 (stereo not given) | 12.99
Cn1cnc2c1C(COCc1cccnc1)N(Cc1ccccn1)CC2 (stereo not given) | -2.413
CC(C)c1ccc(CC(=O)N2CCCC3(CN(C)C(=O)O3)C2)cc1 (stereo not given) | 0.5442
Cc1c(-c2nc3cc(S(=O)(=O)N4CCCC4)ccc3n2C)cnn1C | 5.167
O=c1cc(Cn2cncn2)nc2n1CCCN(Cc1ccoc1)C2 | 2.596
CN(Cc1cn2c(n1)CN(CC1CC1)CC2)Cc1ccco1 | 3.348
Cc1ccc(Cl)c(CN2CCN(C)C(C(=O)O)C2)c1F (stereo not given) | 0.7342
Cn1cnnc1S(=O)(=O)C1CCN(C(=O)c2ccsc2)CC1 | -5.489
CN(C)C(=O)c1cccc(NC(=O)N2CCCC(C(F)(F)F)C2)c1 (stereo not given) | -3.343
Cc1c[nH]nc1C1CCN(C(=O)C2CCCC2)C1 (stereo not given) | 3.357
Cc1cc(C(F)(F)F)nc(C2CCN(C(=O)CO)CC2)n1 | -4.427
Cc1ccc(N2CCCc3sc(C(=O)NCCO)nc32)nn1 | 0.3814
CC1CCN(CCCNC(=O)NC(C)c2nncn2C)CC1 (stereo not given) | 27.21
CO[C@@H]1CCN(c2ncc(F)cn2)[C@@H]2CN(Cc3cccnc3)C[C@@H]21 | -0.7752
CCCS(=O)(=O)N1C[C@H]2C[C@H](C(=O)N(C)C)[C@@H](C1)O2 | -7.819
Cn1cc(C(C)(O)CNC(=O)c2ccc(Br)s2)cn1 (stereo not given) | 1.206
COCCN(Cc1cnn(C)c1)C(=O)C1COc2c(cccc2OC)C1 (stereo not given) | -1.419
Cc1cc(C)c2c(N3CCN(C(=O)N(C)C)CC3)ncnc2n1 | -1.175
CCn1ccnc1CN1CCN(CCC(=O)NC(C)(C)C)CC1C (stereo not given) | 1.876
Clc1cccc(N2CCC(NCc3ncc[nH]3)C2)c1 (stereo not given) | 0.1837
O=C(C1CN(CC2CCOCC2)CC12CCOCC2)N1CCOCC1 (stereo not given) | -1.647
Cc1nccn1C1CCCN(C(=O)c2ccc3c(c2)OCCCO3)C1 (stereo not given) | -5.649

For reference, 10 entries once more:

| SMILES | Percent Effect |
|---|---|
| `Cc1nc([C@H]2C[C@H]3CN(C(=O)c4ccoc4C)CC[C@@H]3O2)no1` | -0.7229 |
| `Cc1cc(CN2CCC=C(CN(C)C(=O)c3ccco3)C2)no1` | 0.6173 |
| `Cc1cc(CC(=O)NCC(O)c2ccc(OC(F)F)cc2)n[nH]1` (stereo not given) | -1.06 |
| `Cc1csc(CNC(=O)NC(C)c2ccc3c(c2)OCCO3)n1` (stereo not given) | -4.928 |
| `Clc1cccc(N2CCC(NCc3ncc[nH]3)C2)c1` (stereo not given) | 0.1837 |
| `COc1cccc(S(=O)(=O)CCNC(C)Cn2cccn2)c1` (stereo not given) | 2.222 |
| `CN1CCN(C)C(CNc2c(C#N)cnc3ccc(Cl)cc23)C1` (stereo not given) | -3.374 |
| `CCCS(=O)(=O)N1C[C@H]2C[C@H](C(=O)N(C)C)[C@@H](C1)O2` | -7.819 |
| `Cc1cc(C(F)(F)F)nc(C2CCN(C(=O)CO)CC2)n1` | -4.427 |
| `CC(C)OCCCNC(=O)Nc1cccc2ncccc12` | -2.571 |

The values are deposited in ChEMBL (CHEMBL3988442, “University of Dundee, Small-Polar-MMV Screening Library” (2021)).